Measurements reported in PubChem BioAssay AID652272 (Drosophila RNAi Screening Center, 2013)
Assay: 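Genes whose knock-down decreases or increases Hedgehog reporter output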 (primary screen). Cells: Drosophila clone 8 (Cl8) cells. Knock-down reagent: long dsRNA against Drosophila genes. Measurement: 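Plate reader light from a firefly reporter under a ptc promoter fragment that responds to Hedgehog, with Renilla light as transfection reference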. Scale: firefly Hh reporter signal: higher = more ptc reporter light; Renilla reference signal: higher = more Renilla control light. Call rule: 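Hit when the z-score averaged over two replicates is under -2 or over +3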. Meaning of the calls: active = hit: reporter lowered or raised; inactive = not a hit.
The screen tested about 21,000 reagents; below is a random part of those that have a named target and a result. Of all reagents, 503 (2.4%) are marked active. 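Raw plate light values, not normalised; calls rest on replicate z-scores that were not deposited; hits include reporter decreases as well as increases.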 Entries without a mark were called inactive. The numbers tell different reagents against one gene apart. Names joined by + are all predicted targets of the reagent. Not stated in the record: the amount of reagent, the time to read-out.

Cul3 (Cullin 3)
- firefly Hh reporter signal, replicate 1: 80136
- firefly Hh reporter signal, replicate 2: 49397
- Renilla reference signal, replicate 1: 2861
- Renilla reference signal, replicate 2: 2161

CG33914 #1
- firefly Hh reporter signal, replicate 1: 1.31e5
- firefly Hh reporter signal, replicate 2: 1.74e5
- Renilla reference signal, replicate 1: 3338
- Renilla reference signal, replicate 2: 7197

CG33914 #2
- firefly Hh reporter signal, replicate 1: 1.57e5
- firefly Hh reporter signal, replicate 2: 2.04e5
- Renilla reference signal, replicate 1: 3965
- Renilla reference signal, replicate 2: 9696

rec (recombination-defective) #1
- firefly Hh reporter signal, replicate 1: 64583
- firefly Hh reporter signal, replicate 2: 66359
- Renilla reference signal, replicate 1: 1724
- Renilla reference signal, replicate 2: 1836

rec (recombination-defective) #2
- firefly Hh reporter signal, replicate 1: 69072
- firefly Hh reporter signal, replicate 2: 88852
- Renilla reference signal, replicate 1: 1186
- Renilla reference signal, replicate 2: 2320

CG12493
- firefly Hh reporter signal, replicate 1: 88006
- firefly Hh reporter signal, replicate 2: 71482
- Renilla reference signal, replicate 1: 9601
- Renilla reference signal, replicate 2: 5512

pigs (pickled eggs) #1
- firefly Hh reporter signal, replicate 1: 4.77e5
- firefly Hh reporter signal, replicate 2: 2.34e5
- Renilla reference signal, replicate 1: 26836
- Renilla reference signal, replicate 2: 5323

pigs (pickled eggs) #2
- firefly Hh reporter signal, replicate 1: 60466
- firefly Hh reporter signal, replicate 2: 1.85e5
- Renilla reference signal, replicate 1: 2642
- Renilla reference signal, replicate 2: 7532

pigs (pickled eggs) #3
- firefly Hh reporter signal, replicate 1: 65291
- firefly Hh reporter signal, replicate 2: 2.03e5
- Renilla reference signal, replicate 1: 2615
- Renilla reference signal, replicate 2: 8872

CG11537
- firefly Hh reporter signal, replicate 1: 89891
- firefly Hh reporter signal, replicate 2: 61859
- Renilla reference signal, replicate 1: 3458
- Renilla reference signal, replicate 2: 2656

Zir (Zizimin-related)
- firefly Hh reporter signal, replicate 1: 1.36e5
- firefly Hh reporter signal, replicate 2: 1.03e5
- Renilla reference signal, replicate 1: 5400
- Renilla reference signal, replicate 2: 3773

CG14330
- firefly Hh reporter signal, replicate 1: 80632
- firefly Hh reporter signal, replicate 2: 99277
- Renilla reference signal, replicate 1: 1992
- Renilla reference signal, replicate 2: 2490

CG1628
- firefly Hh reporter signal, replicate 1: 77491
- firefly Hh reporter signal, replicate 2: 75419
- Renilla reference signal, replicate 1: 2378
- Renilla reference signal, replicate 2: 2013

CG6067
- firefly Hh reporter signal, replicate 1: 57168
- firefly Hh reporter signal, replicate 2: 1.73e5
- Renilla reference signal, replicate 1: 1747
- Renilla reference signal, replicate 2: 6608

Lint-1 + rtv
- firefly Hh reporter signal, replicate 1: 1.01e5
- firefly Hh reporter signal, replicate 2: 59964
- Renilla reference signal, replicate 1: 2420
- Renilla reference signal, replicate 2: 1399

CG34462
- firefly Hh reporter signal, replicate 1: 63568
- firefly Hh reporter signal, replicate 2: 55331
- Renilla reference signal, replicate 1: 8160
- Renilla reference signal, replicate 2: 4378

mr (morula)
- firefly Hh reporter signal, replicate 1: 1.89e5
- firefly Hh reporter signal, replicate 2: 1.50e5
- Renilla reference signal, replicate 1: 7324
- Renilla reference signal, replicate 2: 6084

ea (easter)
- firefly Hh reporter signal, replicate 1: 73570
- firefly Hh reporter signal, replicate 2: 97046
- Renilla reference signal, replicate 1: 1520
- Renilla reference signal, replicate 2: 2040

CG43774 + CG43773 #1
- firefly Hh reporter signal, replicate 1: 1.31e5
- firefly Hh reporter signal, replicate 2: 69232
- Renilla reference signal, replicate 1: 2690
- Renilla reference signal, replicate 2: 4327

CG43774 + CG43773 #2
- firefly Hh reporter signal, replicate 1: 1.20e5
- firefly Hh reporter signal, replicate 2: 62035
- Renilla reference signal, replicate 1: 3328
- Renilla reference signal, replicate 2: 5511

SPARC (Secreted protein, acidic, cysteine-rich)
- firefly Hh reporter signal, replicate 1: 77830
- firefly Hh reporter signal, replicate 2: 1.00e5
- Renilla reference signal, replicate 1: 2921
- Renilla reference signal, replicate 2: 3424

Only “firefly Hh reporter signal, replicate 1” (3 entries from above):
mr (morula) = 1.89e5
ea (easter) = 73570
CG43774 + CG43773 #1 = 1.31e5
